No constants are given. Whether binding was seen depends on the method and setting. Binding seen in cells or lysates may run through a third protein. Here binding means that the protein was enriched with, or labelled near, the bait; the list need not be complete. No binding means not detected with the bait. For some of these results: Tags and fused reporters may be left off the sequences shown.
T1: Flag-tagged Spt5 (WT) (S. pombe) (UniProt O13936)
T1 sequence: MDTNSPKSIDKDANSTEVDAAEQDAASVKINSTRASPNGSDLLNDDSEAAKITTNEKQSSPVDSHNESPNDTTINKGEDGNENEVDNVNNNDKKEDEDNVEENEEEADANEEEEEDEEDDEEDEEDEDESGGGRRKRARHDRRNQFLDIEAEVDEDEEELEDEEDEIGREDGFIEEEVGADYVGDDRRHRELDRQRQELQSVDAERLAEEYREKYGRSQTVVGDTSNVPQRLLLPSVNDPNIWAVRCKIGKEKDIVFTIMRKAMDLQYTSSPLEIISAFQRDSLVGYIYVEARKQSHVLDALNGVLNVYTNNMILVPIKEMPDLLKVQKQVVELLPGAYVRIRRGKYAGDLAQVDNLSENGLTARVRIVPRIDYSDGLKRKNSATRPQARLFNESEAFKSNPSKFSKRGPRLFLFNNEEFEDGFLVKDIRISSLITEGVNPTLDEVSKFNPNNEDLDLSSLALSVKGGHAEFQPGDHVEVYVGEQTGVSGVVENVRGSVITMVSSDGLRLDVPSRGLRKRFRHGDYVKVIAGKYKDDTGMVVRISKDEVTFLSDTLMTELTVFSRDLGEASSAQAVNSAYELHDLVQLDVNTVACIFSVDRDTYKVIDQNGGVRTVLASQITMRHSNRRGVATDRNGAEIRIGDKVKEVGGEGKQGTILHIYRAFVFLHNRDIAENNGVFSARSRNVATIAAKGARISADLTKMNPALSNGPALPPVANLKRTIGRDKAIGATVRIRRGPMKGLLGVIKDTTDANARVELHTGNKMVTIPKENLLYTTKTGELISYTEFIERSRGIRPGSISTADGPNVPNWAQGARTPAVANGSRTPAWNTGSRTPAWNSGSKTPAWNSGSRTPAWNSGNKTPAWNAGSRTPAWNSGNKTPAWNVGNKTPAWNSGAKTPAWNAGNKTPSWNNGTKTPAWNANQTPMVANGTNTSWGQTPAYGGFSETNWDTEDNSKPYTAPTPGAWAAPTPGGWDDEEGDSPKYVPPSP


Columns and labels:
[1] = target: T1, Flag-tagged Spt5 (WT) (S. pombe); assay: affinity purification with mass spectrometry; Flag-tagged Spt5 (WT, dis2Δ, T1A or T1E strains) bound to α-Flag M2 agarose from S. pombe lysate; 25 mM Tris pH 7, 100 mM NaCl, 0.5 mM MgCl2, phosphatase inhibitors; untagged strain as mock
[2] = target: Flag-tagged Spt5 T1E (S. pombe) (UniProt O13936); assay: as above

binding [1] | binding [2] | Molecule
binds | no binding | guanylyl-transferase Pce1 (enzyme, UniProt P40997 1-402) MAPSEKDIEEVSVPGVLAPRDDVRVLKTRIAKLLGTSPDTFPGSQPVSFSKKHLQALKEKNYFVCEKSDGIRCLLYMTEHPRYENRPSVYLFDRKMNFYHVEKIFYPVENDKSGKKYHVDTLLDGELVLDIYPGGKKQLRYLVFDCLACDGIVYMSRLLDKRLGIFAKSIQKPLDEYTKTHMRETAIFPFLTSLKKMELGHGILKLFNEVIPRLRHGNDGLIFTCTETPYVSGTDQSLLKWKPKEMNTIDFMLKLEFAQPEEGDIDYSAMPEFQLGVWEGRNMYSFFAFMYVDEKEWEKLKSFNVPLSERIVECYLDDENRWRFLRFRDDKRDANHISTVKSVLQSIEDGVSKEDLLKEMPIIREAYYNRKKPSVTKRKLDETSNDDAPAIKKVAKESEKEI
binds | – | full-length Rai1 Strep-tagged (natural protein, S. pombe, UniProt O13836 1-352, looked up, source: Rosetta E. coli, purified (StrepTrap HP, Superdex 200)) MLREFSFYDVPPAHVPPVSEPLEIACYSLSRDRELLLDDSKLSYYYPPPLFSDLNTGFPNRFHPPKSDPDPISIVKDVLMTKGIQMNSSFLTWRGLITKIMCAPLDPRNHWETYLVMDPTSGIIMMEERTRSETSYANQDRMCYWGYKFEAISTLPEIWDACSRDQIEQRDNQDVVPDEQYCSIVKINIGKSKLILAGEVDCIWDKKPCSAKESDVHSDDGTIEEDASNAENPNLHYVELKTSKKYPLENYGMRKKLLKYWAQSFLLGIGRIIIGFRDDNGILIEMKELFTHQIPKMLRPYFKPNDWTPNRLLVVLEHALEWIKQTVKQHPPSTEFTLSYTGGSKLVLRQII

Second part, the molecule before the results:

Molecule | binding [1] | binding [2]
Xrn2 (endogenous, S. pombe) (enzyme) | binds | –
Rtf1 (S. pombe (endogenous in S. pombe cells)) | no binding | –
RNA-triphosphatase Pct1 (enzyme, UniProt Q9P6Q6 1-303) MDLKGLLHEENELPSIEKRKIDENAVEHDKVERKRTKSVAVPKIEMNFLNKPIVPDTTKVISNFLTHYLITEPVEHVEIEAKLGTLIDLETQNRFEFPVMNETILNPEFNLRTRFESDMTASEHKYLNEFLNQAFRDSQKPGRLPFAYKHTKQVDLFYETEDNSRDKIRVSKNQSDNQVLACVKKRRVADLFLYCPNDAFDIRISISDELPVSMPSGNQQPSLTRLKDRVGYVHQEIKIDLTKTTQNDPVYDTTERHELEVEFGNIADLRDRAQKAKDGMEAPLFRRVQLFMDNVRILRREHS | binds | no binding
